Measured values: US20260266848A1, “COMPOSITIONS AND METHODS FOR DIAGNOSING AND TREATING DYSTONIA” (Duke University, priority 2023, published 2026)
Some values come without a unit; they compare only within their column.

Test system: DYT1 patient plasma
Experiment: Whole plasma metabolomics (Biocrates MxP Quant 500 Kit), DYT1 vs Healthy Controls
Settings: for Mean of DYT1-Dystonia: DYT1-Dystonia group; for Mean of Healthy Control: Healthy Control group; for LogFC / Ratio: DYT1-Dystonia vs Healthy Control
[1] = Mean of Healthy Control minus Mean of DYT1-Dystonia
[2] = human whole plasma metabolite level
[3] = Healthy Control mean minus DYT1-Dystonia mean

CCCCC/C=C\C/C=C\C/C=C\C/C=C\CCCC(=O)O [AA_Fatty Acids]
Difference [1]: 0.0607 | Mean of DYT1-Dystonia [2]: 0.4471 | Mean of Healthy Control [2]: 0.5078

NCCC[C@H](N)C(=O)O [Orn_Aminoacids Related]
Difference [3]: −0.7467 | Mean of DYT1-Dystonia (human plasma metabolite level): 105.9 | Mean of Healthy Control (human plasma metabolite level): 105.1

CC[C@H](C)[C@H](N)C(=O)O [Ile_Aminoacids]
Difference [1]: 16.33 | Mean of DYT1-Dystonia [2]: 103.1 | Mean of Healthy Control [2]: 119.4

CCCCCCCCCCCCCCCCCCCCCCCCCCCC(=O)OC[C@@H](O)COP(=O)([O-])OCC[N+](C)(C)C [lysoPC a C28:0_Glycerophospholipids]
LogFC: 0.1616 | Ratio: 0.894 | Difference [1]: 0.1196 | Mean of DYT1-Dystonia [2]: 1.004 | Mean of Healthy Control [2]: 1.123

NCCS(=O)(=O)O [Taurine_Aminoacids Related]
Difference [1]: −4.476 | Mean of DYT1-Dystonia [2]: 67.96 | Mean of Healthy Control [2]: 63.49

NCCCC(=O)O [GABA_Biogenic Amines]
Difference [1]: 0.02811 | Mean of DYT1-Dystonia [2]: 0.2481 | Mean of Healthy Control [2]: 0.2762

CC/C=C\C/C=C\C/C=C\C/C=C\C/C=C\C/C=C\CCC(=O)O [DHA_Fatty Acids]
Difference [1]: 0.3141 | Mean of DYT1-Dystonia [2]: 1.024 | Mean of Healthy Control [2]: 1.338

CCCCCCCCCCCCCCCC(=O)OC[C@@H](O)COP(=O)([O-])OCC[N+](C)(C)C [lysoPC a C16:0_Glycerophospholipids]
Difference [1]: −6.572 | Mean of DYT1-Dystonia [2]: 136.1 | Mean of Healthy Control [2]: 129.6

CCCCCCCCCCCCCCCC(=O)O[C@H]1CC[C@@]2(C)C(=CC[C@H]3[C@@H]4CC[C@H]([C@H](C)CCCC(C)C)[C@@]4(C)CC[C@@H]32)C1 [CE(16:0)_Cholesterol Esters]
Difference [1]: 16.58 | Mean of DYT1-Dystonia [2]: 108.6 | Mean of Healthy Control [2]: 125.2

C[C@H](CCC(=O)NCC(=O)O)[C@H]1CC[C@H]2[C@@H]3CC[C@@H]4C[C@H](OS(=O)(=O)O)CC[C@]4(C)[C@H]3CC[C@]12C [GLCAS_Bile Acids]
Difference [3]: 0.08451 | Mean of DYT1-Dystonia (human plasma metabolite level): 1.067 | Mean of Healthy Control (human plasma metabolite level): 1.151

NCCCCN [Putrescine_Biogenic Amines]
Difference [3]: −0.006234 | Mean of DYT1-Dystonia (human plasma metabolite level): 0.1204 | Mean of Healthy Control (human plasma metabolite level): 0.1141

CCCCCCCCCCCCCC(=O)OC[C@@H](O)COP(=O)([O-])OCC[N+](C)(C)C [lysoPC a C14:0_Glycerophospholipids]
Difference [1]: −0.18 | Mean of DYT1-Dystonia [2]: 2.571 | Mean of Healthy Control [2]: 2.391

NCC(=O)O [Gly_Aminoacids]
Difference [1]: 70.99 | Mean of DYT1-Dystonia [2]: 335.3 | Mean of Healthy Control [2]: 406.3

C=CC(=O)OC(CC(=O)[O-])C[N+](C)(C)C (stereo not drawn) [C3:1_Acylcarnitines]
Difference [1]: 0.02054 | Mean of DYT1-Dystonia [2]: 0.2605 | Mean of Healthy Control [2]: 0.281

CCCCCCCCCCCCCCCCCCCCCCCC(=O)OC[C@@H](O)COP(=O)([O-])OCC[N+](C)(C)C [lysoPC a C24:0_Glycerophospholipids]
Difference [1]: 0.04883 | Mean of DYT1-Dystonia [2]: 0.5465 | Mean of Healthy Control [2]: 0.5954

CCCCCCCCCCCCCCCCCC(=O)OC[C@@H](O)COP(=O)([O-])OCC[N+](C)(C)C [lysoPC a C18:0_Glycerophospholipids]
Difference [3]: −0.4983 | Mean of DYT1-Dystonia (human plasma metabolite level): 43.45 | Mean of Healthy Control (human plasma metabolite level): 42.96

CCCCCCCCCCCCCCCCC(=O)OC[C@@H](O)COP(=O)([O-])OCC[N+](C)(C)C [lysoPC a C17:0_Glycerophospholipids]
Difference [3]: 0.08 | Mean of DYT1-Dystonia (human plasma metabolite level): 2.98 | Mean of Healthy Control (human plasma metabolite level): 2.9

CSCC[C@H](N)C(=O)O [Met_Aminoacids]
Difference [1]: 6.934 | Mean of DYT1-Dystonia [2]: 34.78 | Mean of Healthy Control [2]: 41.71

CN1CC(=O)NC1=N [Creatinine_Aminoacids Related]
Difference [1]: −5.466 | Mean of DYT1-Dystonia [2]: 102 | Mean of Healthy Control [2]: 96.53

C[C@H](CCC(=O)NCC(=O)O)[C@H]1CC[C@H]2[C@@H]3[C@@H](O)C[C@@H]4C[C@H](O)CC[C@]4(C)[C@H]3CC[C@]12C [GUDCA_Bile Acids]
Difference [3]: 0.005686 | Mean of DYT1-Dystonia (human plasma metabolite level): 0.07218 | Mean of Healthy Control (human plasma metabolite level): 0.07787

N[C@@H](CCC(=O)O)C(=O)O [Glu_Aminoacids]
Difference [1]: 11.52 | Mean of DYT1-Dystonia [2]: 53.47 | Mean of Healthy Control [2]: 64.99

CN(C)C(N)=NCCC[C@H](N)C(=O)O [ADMA_Aminoacids Related]
Difference [3]: 0.009957 | Mean of DYT1-Dystonia (human plasma metabolite level): 0.5582 | Mean of Healthy Control (human plasma metabolite level): 0.5681

CCC(=O)OC(CC(=O)[O-])C[N+](C)(C)C (stereo not drawn) [C3_Acylcarnitines]
Difference [1]: 0.05677 | Mean of DYT1-Dystonia [2]: 0.5561 | Mean of Healthy Control [2]: 0.6129

C[C@H](CCC(=O)NCC(=O)O)[C@H]1CC[C@H]2[C@@H]3CC[C@@H]4C[C@H](O)CC[C@]4(C)[C@H]3CC[C@]12C [GLCA_Bile Acids]
Difference [1]: 0.01912 | Mean of DYT1-Dystonia [2]: 0.05948 | Mean of Healthy Control [2]: 0.0786

N[C@@H](Cc1ccccc1)C(=O)O [Phe_Aminoacids]
Difference [1]: 7.766 | Mean of DYT1-Dystonia [2]: 78.71 | Mean of Healthy Control [2]: 86.47

Nc1ccccc1C(=O)CC(N)C(=O)O (stereo not drawn) [Kynurenine_Aminoacids Related]
Difference [1]: 0.2116 | Mean of DYT1-Dystonia [2]: 2.278 | Mean of Healthy Control [2]: 2.489

Cc1ccc(OS(=O)(=O)O)cc1 [p-Cresol-SO4_Cresols]
LogFC: −0.7686 | Ratio: 0.587 | Difference [1]: 5.042 | Mean of DYT1-Dystonia [2]: 7.167 | Mean of Healthy Control [2]: 12.21

CCCCCCCCCCCCCCCCCC(=O)O[C@H](CC(=O)[O-])C[N+](C)(C)C [C18_Acylcarnitines]
Difference [1]: −0.002826 | Mean of DYT1-Dystonia [2]: 0.05309 | Mean of Healthy Control [2]: 0.05027

CCCCCCCCCCCCCCCCCCCCCCCCCC(=O)OC[C@@H](O)COP(=O)([O-])OCC[N+](C)(C)C [lysoPC a C26:0_Glycerophospholipids]
LogFC: −0.2141 | Ratio: 0.8621 | Difference [1]: 0.1174 | Mean of DYT1-Dystonia [2]: 0.734 | Mean of Healthy Control [2]: 0.8514

C[C@H](CCC(=O)O)[C@H]1CC[C@H]2[C@@H]3[C@H](O)C[C@@H]4C[C@H](O)CC[C@]4(C)[C@H]3C[C@H](O)[C@]12C [CA_Bile Acids]
Difference [1]: 0.1363 | Mean of DYT1-Dystonia [2]: 0.1642 | Mean of Healthy Control [2]: 0.3005

C[C@@H](O)[C@H](N)C(=O)O [Thr_Aminoacids]
Difference [1]: 32.25 | Mean of DYT1-Dystonia [2]: 171.3 | Mean of Healthy Control [2]: 203.6

C[C@H](CCC(=O)NCCS(=O)(=O)O)[C@H]1CC[C@H]2[C@@H]3[C@H](O)C[C@@H]4C[C@H](O)CC[C@]4(C)[C@H]3CC[C@]12C [TCDCA_Bile Acids]
Difference [1]: 0.03368 | Mean of DYT1-Dystonia [2]: 0.1437 | Mean of Healthy Control [2]: 0.1773

C[n+]1cccc(C(=O)[O-])c1 [Trigonelline_Alkaloids]
Difference [3]: −0.08345 | Mean of DYT1-Dystonia (human plasma metabolite level): 5.24 | Mean of Healthy Control (human plasma metabolite level): 5.157

CCCCCCCCCCCCC/C=C/[C@@H](O)[C@H](CO)NC(=O)CCCCCCCCCCCCCCCCCCCCCC [Cer(d18:1/23:0)_Ceramides]
Difference [1]: 0.09777 | Mean of DYT1-Dystonia [2]: 1.286 | Mean of Healthy Control [2]: 1.384

C[C@H](CCC(=O)NCC(=O)O)[C@H]1CC[C@H]2[C@@H]3CC[C@@H]4C[C@H](O)CC[C@]4(C)[C@H]3C[C@H](O)[C@]12C [GDCA_Bile Acids]
Difference [3]: −0.05284 | Mean of DYT1-Dystonia (human plasma metabolite level): 0.336 | Mean of Healthy Control (human plasma metabolite level): 0.2832

CCCCCCCCCCCC=CC(O)C(CO)NC(=O)CCCCCCCCCCCCCCCCCCCCC (stereo not drawn) [Cer(d16:1/22:0)_Ceramides]
Difference [1]: 0.09075 | Mean of DYT1-Dystonia [2]: 0.5108 | Mean of Healthy Control [2]: 0.6015

C[N+](C)(C)CC(=O)O [Betaine_Aminoacids Related]
Difference [1]: 10.83 | Mean of DYT1-Dystonia [2]: 66.16 | Mean of Healthy Control [2]: 77

NCCC(=O)O [beta-Ala_Biogenic Amines]
Difference [1]: 4.684 | Mean of DYT1-Dystonia [2]: 5.569 | Mean of Healthy Control [2]: 10.25

CCCCCCCCCCCCC/C=C/[C@@H](O)[C@H](CO)NC(=O)CCCCCCCCCCCCCCCCCCCCCCC [Cer(d18:1/24:0)_Ceramides]
Difference [3]: −0.134 | Mean of DYT1-Dystonia (human plasma metabolite level): 3.389 | Mean of Healthy Control (human plasma metabolite level): 3.255

C[C@H](CCC(=O)NCC(=O)O)[C@H]1CC[C@H]2[C@@H]3[C@H](O)C[C@@H]4C[C@H](O)CC[C@]4(C)[C@H]3C[C@H](O)[C@]12C [GCA_Bile Acids]
Difference [1]: −0.04737 | Mean of DYT1-Dystonia [2]: 0.1578 | Mean of Healthy Control [2]: 0.1104

CCCCCCCCCCCCCCC(=O)O[C@H]1CC[C@@]2(C)C(=CC[C@H]3[C@@H]4CC[C@H]([C@H](C)CCCC(C)C)[C@@]4(C)CC[C@@H]32)C1 [CE(15:0)_Cholesterol Esters]
Difference [3]: −0.02641 | Mean of DYT1-Dystonia (human plasma metabolite level): 3.043 | Mean of Healthy Control (human plasma metabolite level): 3.017

CC(C)C[C@H](N)C(=O)O [Leu_Aminoacids]
Difference [1]: 14.93 | Mean of DYT1-Dystonia [2]: 172 | Mean of Healthy Control [2]: 186.9

NC(=O)CC[C@H](N)C(=O)O [Gln_Aminoacids]
Difference [1]: 32.81 | Mean of DYT1-Dystonia [2]: 890.1 | Mean of Healthy Control [2]: 922.9

O=S(=O)(O)Oc1c[nH]c2ccccc12 [Ind-SO4_Indoles Derivatives]
Difference [3]: 0.0819 | Mean of DYT1-Dystonia (human plasma metabolite level): 1.788 | Mean of Healthy Control (human plasma metabolite level): 1.87

C[C@H](N)C(=O)O [Ala_Aminoacids]
Difference [1]: 63.96 | Mean of DYT1-Dystonia [2]: 523.2 | Mean of Healthy Control [2]: 587.1

C[N+](C)(C)CCO [Choline_Vitamins & Cofactors]
Difference [1]: 1.178 | Mean of DYT1-Dystonia [2]: 7.47 | Mean of Healthy Control [2]: 8.648
